Measurements as given in the supplement of paper PMC10849652.
The list shows a part of the results.

Sequences of proteins named here, by UniProt entry; tags and fusion partners are left off. A change or cut given only in a name is not applied to a line headed by its entry.
UniProt P11021: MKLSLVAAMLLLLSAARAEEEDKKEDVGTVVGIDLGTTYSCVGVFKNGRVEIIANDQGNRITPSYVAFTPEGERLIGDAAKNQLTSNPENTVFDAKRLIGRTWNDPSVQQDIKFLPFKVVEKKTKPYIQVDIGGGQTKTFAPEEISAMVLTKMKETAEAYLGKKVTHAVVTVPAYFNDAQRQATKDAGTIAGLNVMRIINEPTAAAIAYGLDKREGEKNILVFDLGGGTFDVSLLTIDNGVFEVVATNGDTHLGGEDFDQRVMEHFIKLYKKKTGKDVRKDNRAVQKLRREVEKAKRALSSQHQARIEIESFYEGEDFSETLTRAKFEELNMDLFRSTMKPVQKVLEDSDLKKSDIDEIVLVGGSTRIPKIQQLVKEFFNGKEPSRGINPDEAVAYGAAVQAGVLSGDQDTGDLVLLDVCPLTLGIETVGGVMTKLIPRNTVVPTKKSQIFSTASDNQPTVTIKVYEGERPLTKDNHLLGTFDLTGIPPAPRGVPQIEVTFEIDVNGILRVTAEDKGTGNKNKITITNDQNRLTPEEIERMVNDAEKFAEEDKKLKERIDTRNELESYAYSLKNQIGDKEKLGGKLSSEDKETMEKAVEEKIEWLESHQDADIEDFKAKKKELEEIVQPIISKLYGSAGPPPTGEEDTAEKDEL
UniProt P14625, whole entry, looked up: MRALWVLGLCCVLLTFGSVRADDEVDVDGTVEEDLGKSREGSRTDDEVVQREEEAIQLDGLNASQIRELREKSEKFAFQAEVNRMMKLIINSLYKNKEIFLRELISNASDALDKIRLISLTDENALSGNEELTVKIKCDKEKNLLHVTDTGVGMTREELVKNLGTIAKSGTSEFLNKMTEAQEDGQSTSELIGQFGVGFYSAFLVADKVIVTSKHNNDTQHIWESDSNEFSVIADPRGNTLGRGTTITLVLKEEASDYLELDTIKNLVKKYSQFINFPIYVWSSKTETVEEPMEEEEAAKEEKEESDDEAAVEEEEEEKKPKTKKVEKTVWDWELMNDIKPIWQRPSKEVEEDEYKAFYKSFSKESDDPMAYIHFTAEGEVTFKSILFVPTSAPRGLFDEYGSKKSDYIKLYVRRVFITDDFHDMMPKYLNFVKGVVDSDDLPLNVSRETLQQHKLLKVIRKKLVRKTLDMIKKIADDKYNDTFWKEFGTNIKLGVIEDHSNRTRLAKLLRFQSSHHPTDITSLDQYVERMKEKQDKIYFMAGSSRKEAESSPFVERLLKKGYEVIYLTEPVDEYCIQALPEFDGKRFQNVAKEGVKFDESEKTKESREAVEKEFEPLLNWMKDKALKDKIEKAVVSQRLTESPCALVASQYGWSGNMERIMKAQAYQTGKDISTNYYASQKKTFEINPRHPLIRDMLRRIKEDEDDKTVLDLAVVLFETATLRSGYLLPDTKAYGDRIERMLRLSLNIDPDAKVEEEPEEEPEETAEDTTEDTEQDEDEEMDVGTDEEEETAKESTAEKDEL
UniProt P30519: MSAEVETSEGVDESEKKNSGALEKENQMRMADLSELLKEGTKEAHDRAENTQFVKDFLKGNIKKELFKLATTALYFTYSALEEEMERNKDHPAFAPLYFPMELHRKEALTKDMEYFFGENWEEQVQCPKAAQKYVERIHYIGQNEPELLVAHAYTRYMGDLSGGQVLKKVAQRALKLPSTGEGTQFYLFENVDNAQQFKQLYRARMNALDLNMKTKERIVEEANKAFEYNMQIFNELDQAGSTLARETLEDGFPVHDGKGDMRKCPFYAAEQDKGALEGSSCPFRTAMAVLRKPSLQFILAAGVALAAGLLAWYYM
UniProt Q8TCT9: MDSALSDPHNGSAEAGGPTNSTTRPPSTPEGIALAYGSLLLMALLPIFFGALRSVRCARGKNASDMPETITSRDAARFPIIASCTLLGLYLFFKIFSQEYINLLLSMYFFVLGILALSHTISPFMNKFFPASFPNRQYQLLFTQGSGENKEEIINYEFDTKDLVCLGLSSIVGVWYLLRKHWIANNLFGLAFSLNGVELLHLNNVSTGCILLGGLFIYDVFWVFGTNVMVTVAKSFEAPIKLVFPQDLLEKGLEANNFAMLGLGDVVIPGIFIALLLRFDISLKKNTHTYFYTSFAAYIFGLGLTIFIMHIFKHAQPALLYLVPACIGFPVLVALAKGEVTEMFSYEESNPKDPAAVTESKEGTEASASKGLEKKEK
UniProt P17483: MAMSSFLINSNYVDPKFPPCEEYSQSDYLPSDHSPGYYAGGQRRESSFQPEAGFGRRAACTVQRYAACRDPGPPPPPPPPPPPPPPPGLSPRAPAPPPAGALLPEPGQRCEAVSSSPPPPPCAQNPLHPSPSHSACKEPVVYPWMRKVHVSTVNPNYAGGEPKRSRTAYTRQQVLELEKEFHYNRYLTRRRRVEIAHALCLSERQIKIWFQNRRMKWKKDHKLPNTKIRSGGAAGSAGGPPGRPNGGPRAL
UniProt P17096: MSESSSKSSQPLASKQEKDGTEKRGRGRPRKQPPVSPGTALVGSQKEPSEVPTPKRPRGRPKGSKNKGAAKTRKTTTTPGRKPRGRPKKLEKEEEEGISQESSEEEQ
UniProt Q03014: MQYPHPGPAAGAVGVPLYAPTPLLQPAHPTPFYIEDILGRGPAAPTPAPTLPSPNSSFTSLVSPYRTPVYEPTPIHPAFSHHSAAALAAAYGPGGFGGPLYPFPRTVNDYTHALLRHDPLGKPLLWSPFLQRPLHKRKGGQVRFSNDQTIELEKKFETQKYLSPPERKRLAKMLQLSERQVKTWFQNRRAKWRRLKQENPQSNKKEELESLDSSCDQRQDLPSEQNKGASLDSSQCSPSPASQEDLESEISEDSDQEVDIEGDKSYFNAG
UniProt P23327: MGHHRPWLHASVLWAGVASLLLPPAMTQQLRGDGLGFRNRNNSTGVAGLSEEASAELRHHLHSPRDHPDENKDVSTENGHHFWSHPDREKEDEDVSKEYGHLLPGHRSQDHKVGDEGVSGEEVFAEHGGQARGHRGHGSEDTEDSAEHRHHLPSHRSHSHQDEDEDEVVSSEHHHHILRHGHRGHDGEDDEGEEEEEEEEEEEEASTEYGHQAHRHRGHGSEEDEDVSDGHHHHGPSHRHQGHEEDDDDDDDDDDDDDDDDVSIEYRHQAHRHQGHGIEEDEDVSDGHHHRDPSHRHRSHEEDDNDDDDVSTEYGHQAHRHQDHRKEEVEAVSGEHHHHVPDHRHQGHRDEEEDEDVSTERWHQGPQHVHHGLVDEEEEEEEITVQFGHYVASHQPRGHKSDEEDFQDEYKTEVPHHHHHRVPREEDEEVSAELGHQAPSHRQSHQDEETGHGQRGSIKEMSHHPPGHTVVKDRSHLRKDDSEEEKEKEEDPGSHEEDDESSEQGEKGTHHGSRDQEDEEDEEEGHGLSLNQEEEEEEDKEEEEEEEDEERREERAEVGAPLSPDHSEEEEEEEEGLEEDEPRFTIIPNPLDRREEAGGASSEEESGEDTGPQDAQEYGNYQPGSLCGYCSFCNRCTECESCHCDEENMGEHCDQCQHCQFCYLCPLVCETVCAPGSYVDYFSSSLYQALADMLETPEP

Key:
Assay in all cases: log2 fold change, soluble protein after heating vs DMSO (PISA); higher = thermal stabilisation; K562 lysate, 10 uM; active = over 0.2 and 3.5 SD of the protein, either way, in both replicates (recomputed)
[1] = compound: C1=CC=C(C=C1)[C@H](COC2=CC3=C(C=C2)NC(=O)N3)NC(=O)C4=CC=CN(C4=O)CC5=CC(=C(C=C5)F)F
Outline: (§1)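 To prepare the extract, K562 pellets were dounce-homogenised in PBS pH 7.4 with 1 mM MgCl2, giving crude material at 1 mg/mL protein. This was treated with 10 μM compound for 30 min, then heated in aliquots for 3 min over 48°C-58°C before pooling and addition of NP-40 to 0.5% at 4°C. Centrifugation at 21,000xg for 90 min left soluble protein in the supernatant, which TMTpro 16plex LC-MS/MS quantified with equalised channel sums. Results are log-two fold changes in thermal stability compared with solvent controls, from duplicates.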

[2] = compound: CC1=C(SC2=C1C(=N[C@H](C3=NN=C(N32)C)CC(=O)N)C4=CC=C(C=C4)Cl)C
Outline: as §1

[3] = compound: CC1=C2C(=CC=C1)N=C(N(C2=O)C3=CC=CC=C3C)CN4C=NC5=C(N=CN=C54)N
Outline: as §1

[4] = compound: Cc1sc2c(c1C)C(c1ccc(Cl)cc1)=N[C@@H](CC(=O)OC(C)(C)C)c1nnc(C)n1-2
Outline: as §1

[5] = compound: c1ccc([C@@H]2C[C@H]2NC2CCNCC2)cc1
Outline: as §1

Measured: log2 fold change

HSPA5 (UniProt P11021)
inactive: [1] -0.001 | [2] 0.002 | [3] -0.006 | [4] 0.017 | [5] 0.031

HPCAL1 (UniProt P37235)
inactive: [1] 0.015 | [2] -0.05 | [3] -0.017 | [4] 0.006 | [5] -0.046

HSP90B1 (UniProt P14625)
inactive: [1] 0.025 | [2] -0.003 | [3] -0.011 | [4] 0.005 | [5] 0.016

HMOX2 (UniProt P30519)
inactive: [1] 0.104 | [2] 0.018 | [3] 0.126 | [4] 0.037 | [5] -0.011

HM13 isoform 2 (UniProt Q8TCT9)
inactive: [1] 0.004 | [2] -0.017 | [3] 0.025 | [4] -0.062 | [5] -0.035

HOXB4 (UniProt P17483)
inactive: [1] -0.053 | [2] 0.118 | [3] 0.089 | [4] 0.13 | [5] 0.236

HMGA1 (UniProt P17096)
inactive: [1] 0.009 | [2] 0.024 | [3] 0.011 | [4] -0.031 | [5] -0.135

HHEX (UniProt Q03014)
inactive: [1] -0.06 | [2] 0.084 | [3] -0.013 | [4] 0.024 | [5] -0.068

HRC (UniProt P23327)
inactive: [1] 0.01 | [2] 0 | [3] -0.003 | [4] -0.077 | [5] -0.056
